The list shows a part of the results.

Amino acid sequences for entries named in this document (tags omitted).
UniProt Q0JBA9, entry or part of it: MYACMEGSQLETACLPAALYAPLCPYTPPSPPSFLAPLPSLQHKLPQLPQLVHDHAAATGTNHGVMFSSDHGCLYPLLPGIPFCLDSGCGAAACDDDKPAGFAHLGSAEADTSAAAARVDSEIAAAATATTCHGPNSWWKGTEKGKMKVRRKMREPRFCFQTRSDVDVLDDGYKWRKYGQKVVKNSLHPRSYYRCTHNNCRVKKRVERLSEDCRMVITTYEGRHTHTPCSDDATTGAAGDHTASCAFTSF

This test concerns the target OsWRKY34 (Oryza sativa, UniProt Q0JBA9 1-250). As to the kind of experiment: protein-binding microarray (RPBM); PBS, 2% BSA, 51.3 ng/ul salmon testes DNA, 50 uM zinc acetate, 200 nM TF, 25 C, 1 h; high values mean tight binding. The note with it: protein: recombinant; tags: N-terminal polyhistidine and DsRed monomer fusion (pET32a); label: CyDye5-dUTP incorporated in the synthesized complementary strand; 3' TTTTT single-stranded linker to array surface; dsDNA, one strand shown. Summed up:
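Binding signal is defined as the fluorescence intensity of each feature in arbitrary units, read on an Axon 4000B scanner. Transcription factors with N-terminal polyhistidine and DsRed fusions came from E. coli BL21-CodonPlus and were purified on Ni–NTA. They were incubated at 200 nM for 1 h at 25 °C on a custom Agilent array that had been made double-stranded with Cy5-dUTP, with 50 µM zinc acetate present, and the array was washed.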
Take “ACATGTTTTTTTTTTCTCGAACATTTTTCGCCGCTGTTTTCGGAGTCACCTAGTGCAG”: the binding signal is 11000 fluorescence intensity (a.u.).

Consider “AAAGTCAGGGTGAGTGATGTCTGGTTTTTAGCTTCAGGGGCGGAGTCACCTAGTGCAG”, for which the binding signal was 8040 fluorescence intensity (a.u.). The same measure for “CGTCGGTTACCTTCCGTTCCGTTGCCTCTCTCTCTCTCTCCGGAGTCACCTAGTGCAG”: 9010 fluorescence intensity (a.u.); for “CCACCCCACCTTTCTTCCGCATCCTACCCGGTTCGTTTTTCGGAGTCACCTAGTGCAG”: 12200 fluorescence intensity (a.u.); for “TTCTCCCACTGTCATCTTCGGCATATCCTTCTCATTGTCTCGGAGTCACCTAGTGCAG”: 10800 fluorescence intensity (a.u.). The same measure for “TTCAGTTTTTTACATTTTTATGTGAATTTGGTCAAATTTTCGGAGTCACCTAGTGCAG”: 8990 fluorescence intensity (a.u.); for “TGCCTCCCTCGCCATCCGCGCGGCCGTCTTCCCCAACAGCCGGAGTCACCTAGTGCAG”: 8230 fluorescence intensity (a.u.); for “GGGTGGGTGATTCTTCTTCGAGGAGCTTCTTCTTGGAGCTCGGAGTCACCTAGTGCAG”: 11800 fluorescence intensity (a.u.).

For “GTCTCGTGGCACCTCAATTTATTAATCACTACCCCTATACCGGAGTCACCTAGTGCAG”, the binding signal is 8710 fluorescence intensity (a.u.).

“CATGTTCACCTCCATCTGCTGTCTTAAGTTTGACTTGATCCGGAGTCACCTAGTGCAG”: the binding signal was 9950 fluorescence intensity (a.u.).

As to “ATTTACTCTTAATGTTTTGGATATTTTTTTTTCTCTTTCTCGGAGTCACCTAGTGCAG”, the binding signal was 10500 fluorescence intensity (a.u.).

Regarding “TAATAAGACGAACGGTTAAACATGTGTTAAAAAGTCAACGCGGAGTCACCTAGTGCAG”, the binding signal was 12500 fluorescence intensity (a.u.). The same measure for “GATGCACGTCTACACTTTCCCAACTCATATCTCTCGTTTTCGGAGTCACCTAGTGCAG”: 9120 fluorescence intensity (a.u.); for “AATACTTAATTAATCACGCGCTAATCGCTGCTCCGTTTTTCGGAGTCACCTAGTGCAG”: 8460 fluorescence intensity (a.u.).

With “TTAAAACTCAATTAATCACACGTTATTACCACCTCGTTTTCGGAGTCACCTAGTGCAG”, the binding signal was 9610 fluorescence intensity (a.u.). With “ACTGGCTGCTTCTGTAACCCTGGCGCTTGTGCTAAGTATCCGGAGTCACCTAGTGCAG”, the binding signal was 9640 fluorescence intensity (a.u.). “CACCTCTTCACACAAACTGTATATGCTGTCTTTTACTTGACGGAGTCACCTAGTGCAG”: the binding signal is 9140 fluorescence intensity (a.u.). In the case of “GTGCAGCCGTGGATATCCGTGCCCAACGTTTGACCGTCCGCGGAGTCACCTAGTGCAG”, the binding signal was 9290 fluorescence intensity (a.u.).

“TTTTTTGTCGGACTTTTTTCTTCATTTTTTACCTCTTTTGCGGAGTCACCTAGTGCAG”: the binding signal is 16900 fluorescence intensity (a.u.). On to “ATTTTGTCGTTGGCGTGTAATTTTCCGATCATCACAGTATCGGAGTCACCTAGTGCAG”, for which the binding signal is 9560 fluorescence intensity (a.u.). Regarding “TCATAATTTGAATTCTTCTGCGCAAATTTGTTGCCGCACTCGGAGTCACCTAGTGCAG”, the binding signal is 8890 fluorescence intensity (a.u.). Consider “GGGGCGCTGACACTGCAACAATAATTTTTCTGTTTCCAACCGGAGTCACCTAGTGCAG”, for which the binding signal was 8110 fluorescence intensity (a.u.).

Consider “GCCGTCCCCGTCGCCGTGCATCAGATCATTTCATCACCGGCGGAGTCACCTAGTGCAG”, for which the binding signal was 10600 fluorescence intensity (a.u.). The same measure for “CATTCTCCGCTCCTTCCGTTCCATTCCATCTCCGGTCTGACGGAGTCACCTAGTGCAG”: 8990 fluorescence intensity (a.u.). The value for “CAGATCCGGCAGAGGCGGGAGGGGAGGCGCAGGGGCGACGCGGAGTCACCTAGTGCAG” was 9470 fluorescence intensity (a.u.); that for “TTTTTCTGGGTGGTGTCAAATTCAGAAGGCGTCCCAAACTCGGAGTCACCTAGTGCAG” was 8220 fluorescence intensity (a.u.); that for “AGTCAAATCGCTTTCACTAACACTAGTTTATTACCATATTCGGAGTCACCTAGTGCAG” was 8460 fluorescence intensity (a.u.). The value for “ATAGTTTGTTTTTAAATGCATATTTTTCGCGATTTCCAAACGGAGTCACCTAGTGCAG” was 9450 fluorescence intensity (a.u.). On to “GACACCCTGCATGGCATTCGCACGCCATTGACACATATCTCGGAGTCACCTAGTGCAG”, for which the binding signal is 8450 fluorescence intensity (a.u.). The same measure for “TGGTCTGCATGTTTATTATCTAGGTTTTTCATTCTTCTTTCGGAGTCACCTAGTGCAG”: 11700 fluorescence intensity (a.u.); for “TGGTGGTGGCTGTCTCCTTTCCATCCTGTCGCGCACAGCACGGAGTCACCTAGTGCAG”: 9200 fluorescence intensity (a.u.). The same measure for “TATACCTCTCTCTCTCTCTCTCTCTCTCTCTCTCTCTCTTCGGAGTCACCTAGTGCAG”: 8280 fluorescence intensity (a.u.). On to “ATGTAGTTTGCAATAGTTTGATGGAAATATTATCCTATTACGGAGTCACCTAGTGCAG”, for which the binding signal is 8440 fluorescence intensity (a.u.).

As for “TACACCGTCCCAACCGGCTTTGTTTGACTTGTCCGACCAGCGGAGTCACCTAGTGCAG”, the binding signal was 8330 fluorescence intensity (a.u.). Take “CCCGTGGATTTGCCACCGTTTAACCGCGCCCTCTTTGAACCGGAGTCACCTAGTGCAG”: the binding signal is 8430 fluorescence intensity (a.u.). The value for “CTGTTTCATATTACATGTACCTTTGACTTTTTAAGTTTGACGGAGTCACCTAGTGCAG” was 13200 fluorescence intensity (a.u.); that for “CTGGCTTAATGGCTAGTGTTTGTACTCGTGTATCCAACTACGGAGTCACCTAGTGCAG” was 8600 fluorescence intensity (a.u.); that for “GCTAATGGGCCAGCCGCCCAGCTCGTTTCTATCTGCAACACGGAGTCACCTAGTGCAG” was 9420 fluorescence intensity (a.u.).

Consider “GGGTTTCCGTGTCTAACTTTAGCTTTTCGTCTTATATGAACGGAGTCACCTAGTGCAG”, for which the binding signal is 8900 fluorescence intensity (a.u.).

For the sequence “AGCTACAGTTTGCAGTTGTTCCCTAATTGTTGACCCTTTTCGGAGTCACCTAGTGCAG”, the binding signal is 10400 fluorescence intensity (a.u.). For “TACAACCCTGGCCCATGACGTCACCTACTCTTTCTCCTTTCGGAGTCACCTAGTGCAG”, the binding signal was 12400 fluorescence intensity (a.u.).

For “GATACCGTACTCTCTTAATTTCTTTTTAATATACGATGTACGGAGTCACCTAGTGCAG”, the binding signal was 9390 fluorescence intensity (a.u.).
